Results on 17 compounds are retold here after PubChem BioAssay AID2685 (National Center for Advancing Translational Sciences (NCATS), 2010).

The test in a line: qHTS Assay for Lipid Storage Modulators in Drosophila S3 Cells.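 As to cell number change: cells counted by Cell Tracker Red CMTPX staining in the red channel.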 The conditions noted are these: BODIPY lipid droplet fluorescence, 18-24 h; for cell number change: measured here: cell count max response, cells fed with added oleic acid. The essentials:
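Drosophila S3 cells got compounds at several concentrations plus oleic acid (400 uM solution). Laser-scanning cytometry with 488 nm excitation read lipid droplets at 500-530 nm and cells at 575-640 nm. Percent activity was relative to 20 uM Triacsin C.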

Setting [1] is: measured here: cell number channel AC50, cells fed with added oleic acid.
[2] abbreviates: measured here: lipid fluorescence (Fed channel) AC50, cells fed with added oleic acid.

Broadly, the AC50 is the concentration at which the activity in the assay is half-maximal. A higher AC50 goes with activity only at high concentration.

The structures appear in SMILES notation. The list shows a part of the results. These are further read-outs of the screen, such as a control signal, another cell line or another target. No call is given for them. Compounds called inactive in the main read-out are mostly missing here. Words in brackets tell the shape of the fitted curve; partial curves, single points and poor fits give uncertain potencies.

Take `CCOC(=O)CNC(=S)n1ncnc1N`: the cell number change is -0.662%. Also, under setting [1], the AC50 is 291 nM [rising, partial curve, poor fit]. The AC50 under setting [2] was 461 nM [rising, partial curve, poor fit]. With `CCOc1cc(C2C(C#N)=C(N)OC(C)=C2C(C)=O)c(Br)c(Br)c1OC(C)C` (configuration not stated), the cell number change is -34.9%. Besides, the AC50 under setting [1] is 18400 nM [falling, single point]. In addition, the AC50 under setting [2] was 29100 nM [falling, single point]. As to `O=C(/C=C/c1cccc([N+](=O)[O-])c1)NCCSCc1ccccc1Cl`, the cell number change worked out at 19.4%.

For the compound `Cc1ccc([N+](=O)[O-])cc1S(=O)(=O)Nc1ccc(C(=O)NCC2CCCO2)cc1` (configuration not stated), the cell number change is -2.63%. Also, the AC50 under setting [2] was 259 nM [falling, full curve, poor fit].

For `Cc1cc(C)c(OCC(=O)NCC2COc3ccccc3O2)c(C)c1` (configuration not stated), the cell number change was -17.4%. With `CCN(CC)CCCNC(=O)c1ccccc1NC(=O)C1=CSCCO1`, the cell number change was -20.4%. Further, under setting [1], the half-maximal activity concentration (AC50) is 3660 nM [falling, single point]. `O=C(c1ccc(CNc2c(N3CCCC3)c(=O)c2=O)cc1)N1CCc2ccccc2C1`: the cell number change is -37.5%. Moreover, the AC50 under setting [1] is 9200 nM [falling, partial curve, poor fit]. For the compound `Cc1cc(=O)nc2c3ccccc3n(CC(=O)NCCCN3CCCCC3C)n12` (configuration not stated), the cell number change was -9.13%. Regarding `COc1ccc(Cl)cc1NC(=O)CSc1nnc(CNC(=O)c2cccs2)o1`, the cell number change is -6.8%. As to `Cc1ccc(OCc2cc(C(=O)N(C)CCc3ccccn3)no2)cc1C`, the cell number change is -43.7%. Under setting [1], the AC50 was 1160 nM [falling, partial curve, poor fit]. Also, the AC50 under setting [2] is 25900 nM [falling, partial curve, poor fit]. As to `O=C(COc1cc2oc(=O)cc(-c3ccccc3)c2cc1Cl)NC(Cc1c[nH]c2ccc(O)cc12)C(=O)O` (configuration not stated), the cell number change came out at 23.6%. In addition, the AC50 under setting [2] was 3660 nM [rising, single point]. In the case of `CCn1c(COc2ccccc2)nnc1SCC(=O)C(C)(C)C`, the cell number change is -20.9%. Moreover, under setting [2], the AC50 was 29100 nM [falling, single point]. For the compound `Cn1cc(Cl)c(C(=O)NNC(=S)NC2CCCCC2)n1`, the cell number change is -1.71%. Also, the AC50 under setting [2] was 2060 nM [rising, partial curve]. Consider `CCN(CC)c1ccc(/C=N/NC(=O)c2c(-c3ccccc3)noc2C)cc1`, for which the cell number change is 20%. Under setting [2], the AC50 is 2310 nM [rising, partial curve]. As for `CCCNC(=O)CS(=O)(=O)Cc1nc(-c2cccc(OC)c2)oc1C`, under setting [1], the AC50 is 6510 nM [rising, single point]. As to `C=CCn1c(SCC(=O)Nc2c(C)cccc2C)nnc1-c1ccncc1`, the AC50 under setting [2] is 1640 nM [rising, partial curve]. With `COc1ccc(CNC(=O)CCN2C(=O)c3ccccc3C2=O)cc1OC`, the cell number change was 14.5%. For the same compound, the AC50 under setting [1] was 116 nM [rising, full curve, poor fit]. The AC50 under setting [2] is 1160 nM [rising, full curve].
